For this experiment, the target named is XLFCTR (C-terminal region of XLF, residues 229-299) (UniProt Q9H9Q4). Put plainly: NMR titration; 250 uM 15N XLFCTR with one or two equivalents of unlabelled XLF_(1-224); 1H-15N HSQC chemical shifts and 15N R2; 298 K, 20 mM BisTris pH 6.5, 150 mM KCl; both purified.

Sequences of proteins named here, by UniProt entry; tags and fusion partners are left off. Residues count along the entry.
XLF_(1-224) (folded domain of XLF) (Q9H9Q4, residues 1-224): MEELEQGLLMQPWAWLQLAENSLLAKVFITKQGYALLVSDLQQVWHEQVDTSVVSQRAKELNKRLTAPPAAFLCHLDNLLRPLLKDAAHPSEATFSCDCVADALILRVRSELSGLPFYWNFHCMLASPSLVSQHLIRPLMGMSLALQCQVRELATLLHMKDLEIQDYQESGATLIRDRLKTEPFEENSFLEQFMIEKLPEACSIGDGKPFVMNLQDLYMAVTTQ
XLFCTR (C-terminal region of XLF, residues 229-299) (Q9H9Q4, residues 229-299): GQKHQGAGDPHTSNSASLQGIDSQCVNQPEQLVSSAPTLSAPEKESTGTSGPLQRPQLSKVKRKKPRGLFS

These are yes or no findings as the source states them, for the method shown. Some results given as binding are weak or reduced against the parent protein; the word gives no strength.

Regarding “XLF_(1-224) (folded domain of XLF) (from UniProt Q9H9Q4 1-224) (domain or fragment)”, the binding result was “binds weakly”.
